Results as given in US20140072613A1, “Compositions and Methods for Treating Cutaneous Scarring” (priority 2012, published 2014).
Where “and” joins values, the source holds several entries; their conditions need not be identical. Equal values may be shown once. Part of at least one peptide drawing is inferred or uncertain, most often the ends. Where no end group is shown, it is not given here.

Assays:
[1] = system: immunomodulatory and stem cells in the scar region; test: FACS population analysis of immunomodulatory and stem cells in the scar region (mouse hypertrophic scarring model); assay type: in vivo
[2] = system: scar formation in full thickness wounds; test: Full thickness wounds in Red Duroc pigs: histopathology of scar formation; assay type: in vivo; settings: for Epithelium non-uniformity (pathology median score) / Quality of Scar (pathology median score) / Epithelium Coverage (pathology median score) / Deep Granulation Tissue (pathology median score) / Superficial Granulation Tissue (pathology median score): day 70 biopsies; for Epithelium non-uniformity (pathology median score): Control 1; for Quality of Scar (pathology median score): Control 2; for Epithelium Coverage (pathology median score): Control 3; for Deep Granulation Tissue (pathology median score) / Superficial Granulation Tissue (pathology median score): Control 4
[3] = system: hypertrophic scarring induced by mechanical loading; test: Mouse model of hypertrophic scarring induced by mechanical loading: scar area, gross and histological; assay type: in vivo
full thickness wounds = test: Full thickness wounds in Red Duroc pigs: wound size; assay type: in vivo; settings: 30 μM
[4] = system: scar-related genes (ccl2, ccr2, col1α2, col 3α1, emr1, IL-6, TGF-β1); test: qRT-PCR of scar related gene transcripts in scar area (mouse hypertrophic scarring model); assay type: in vivo
266 human kinases = assay type: biochemical; settings: JNK1α1(h); 100 μM
Text: Specifically, in these assays, a positively charged substrate is phosphorylated with a radiolabeled phosphate group from an ATP if the kinase is not inhibited by an inhibitor peptide. The positively charged substrate then is attracted to a negatively charged filter membrane, quantified with a scintillation counter, and compared to a 100% activity control.

[5] = system: scar formation in full thickness wounds; test: Full thickness wounds in Red Duroc pigs: clinical (visual) assessment of scarring; assay type: in vivo; settings: for Visual Analog Scale (VAS): 0 excellent scar, 10 poor scar; for Contour (C): flush with surrounding skin=1 to keloid=4; for Matte/Shiny (M/S): matte=1, shiny=2; for Distortion (D): none=1 to severe=4; for Texture (T): normal=1 to hard=4; for Color Matching (CM): perfect match=1 to gross mismatch=4
[6] = individual mice, intraperitoneal daily day 0 to day 14, day 14, Image J

YARAAARQARAKALARQLGVAA [MMI-0100]
mast cell (CD45+/CD117+) population in the scar region ([1]; PBS 3.196, P value 0.09): 1.5786 | lymphocyte (CD4/CD8+) population in the scar region ([1]; PBS 6.918, P value 0.02): 4.188 | Hematopoietic Stem Cell (HSC) (CD45+/Sca1+) population in the scar region ([1]; PBS 13.212, P value 0.22): 8.972 | macrophage (F4/80+) population in the scar region ([1]; PBS 21.28, P value 0.09): 13.592 | monocyte (CD11b+) population in the scar region ([1]; PBS 22.48, P value 0.41): 16.744 | Mesenchymal Stem Cell (MSC) (CD45−/Scal+) population in the scar region ([1]; PBS 23.36, P value 0.43): 21.32 | infiltration of other immune and progenitor cells into the scar area ([1]; did not achieve statistical significance p<0.05): consistently decreased mast/dendritic cells, macrophages, and other monocyte-related and progenitor stem cells | infiltration of CD4+/CD8+ lymphocytes into the scar area ([1]; n=5, P=0.02): significantly decreased infiltration of CD4+/CD8+ lymphocytes | Epithelium non-uniformity (pathology median score) ([2]; 30 μM): 1 | Quality of Scar (pathology median score) ([2]; 30 μM): 1 | Epithelium Coverage (pathology median score) ([2]; 30 μM): 3 | Deep Granulation Tissue (pathology median score) ([2]; 30 μM): 4 | Superficial Granulation Tissue (pathology median score) ([2]; 30 μM): 0 | pathology findings (trends) ([2]; 30 μM, did not reach statistical significance): improvements in both total scar reduction and increased speed of tissue remodeling | Epithelium non-uniformity (pathology median score) ([2]; 300 μM): 1 | Quality of Scar (pathology median score) ([2]; 300 μM): 2 | Epithelium Coverage (pathology median score) ([2]; 300 μM): 3 | Deep Granulation Tissue (pathology median score) ([2]; 300 μM): 4 | Superficial Granulation Tissue (pathology median score) ([2]; 300 μM): 4 | gross scar appearance vs PBS-treated control mice ([3]; MMI-0100 intraperitoneal daily day 0 to day 14, day 14, P=0.011): less inflammation and less scar formation | alignment of collagen fibers in scar areas (H&E histology) ([3]; PBS-treated mice exhibited whorls of collagen fibers): aligned parallel to the skin surface | scar area avg ([3]; average of area (mm^2) column, n=5, intraperitoneal daily day 0 to day 14, day 14, PBS avg 60.75): 37.53 | scar area (mm^2) [3, 6]: 41.60 mm^2 and 30.28 mm^2 and 42.83 mm^2 and 46.66 mm^2 and 26.31 mm^2 | scar area (pixels) [3, 6]: 710.227 pixels and 517.002 pixels and 731.195 pixels and 796.618 pixels and 449.178 pixels | cross sectional scar area (histology) vs PBS ([3]; n=5, p=0.015): significantly reduced scar areas histologically | speed of wound healing vs PBS control and 300 μM dosage (full thickness wounds; assessment days 7 and 13): accelerated wound healing | reduction of wound size compared to the PBS control (full thickness wounds; day 7): 10% | reduction of wound size compared to the PBS control (full thickness wounds; day 13): 5% | expression of TGF-β1 in the scar area (qRT-PCR) vs control mice ([4]; PBS n=3, MMI n=4): significant modulation in the expression of TGF-β1 | expression of other scar-related genes (qRT-PCR) ([4]; not reaching significance p<0.05): consistent modulation of other scar-related genes | % activity (266 human kinases): 91% | visual assessments of scar appearance ([5]; 30 μM): at parity with the PBS control | scarring ([5]; 30 μM, Day 56): at parity with the PBS control | Visual Analog Scale (VAS) ([5]; DAY 56, 30 μM): 0.9 | Contour (C) ([5]; DAY 56, 30 μM): 1 | Matte/Shiny (M/S) ([5]; DAY 56, 30 μM): 1 | Distortion (D) ([5]; DAY 56, 30 μM): 1 | Texture (T) ([5]; DAY 56, 30 μM): 2 | Color Matching (CM) ([5]; DAY 56, 30 μM): 1 | Visual Analog Scale (VAS) ([5]; DAY 56, 300 μM): 2.6 | Contour (C) ([5]; DAY 56, 300 μM): 2 | Matte/Shiny (M/S) ([5]; DAY 56, 300 μM): 1 | Distortion (D) ([5]; DAY 56, 300 μM): 2 | Texture (T) ([5]; DAY 56, 300 μM): 2 | Color Matching (CM) ([5]; DAY 56, 300 μM): 2 | Visual Analog Scale (VAS) ([5]; DAY 70, 30 μM): 1.8 | Contour (C) ([5]; DAY 70, 30 μM): 2 | Matte/Shiny (M/S) ([5]; DAY 70, 30 μM): 1 | Distortion (D) ([5]; DAY 70, 30 μM): 1 | Texture (T) ([5]; DAY 70, 30 μM): 2 | Color Matching (CM) ([5]; DAY 70, 30 μM): 2 | Visual Analog Scale (VAS) ([5]; DAY 70, 300 μM): 2.0 | Contour (C) ([5]; DAY 70, 300 μM): 2 | Matte/Shiny (M/S) ([5]; DAY 70, 300 μM): 1 | Distortion (D) ([5]; DAY 70, 300 μM): 1.5 | Texture (T) ([5]; DAY 70, 300 μM): 2 | Color Matching (CM) ([5]; DAY 70, 300 μM): 2
